Some of the results follow.
Compound: Cc1cc(ccc1-c1ccccc1)C(=O)N1CCCN(CC1)C(=O)CCl [compound 10]
Test: probe-labelled cysteine peptide fold change vs DMSO (competition) (log2 fold change); higher = less target engagement (more negative = stronger competition)
Conditions: THP-1, incubation time: 4 h
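Further: competitive profiling in live THP-1 cells: cysteine peptides tagged with an iodoacetamide desthiobiotin (IA-DTB) probe, intensity after compound treatment relative to DMSO-treated cells.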

Protein sequences, listed by entry. Tags and fused reporters are not part of them. Lines headed by an entry give the natural chain unless they say otherwise; changes in a name come on top.
UniProt P51809, whole entry, looked up: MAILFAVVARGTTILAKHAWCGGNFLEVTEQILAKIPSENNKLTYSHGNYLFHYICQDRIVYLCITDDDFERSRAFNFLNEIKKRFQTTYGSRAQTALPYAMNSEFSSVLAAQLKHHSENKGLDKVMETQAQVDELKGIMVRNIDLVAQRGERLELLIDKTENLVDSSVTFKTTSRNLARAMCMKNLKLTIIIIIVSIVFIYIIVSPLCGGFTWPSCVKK
UniProt Q96JH7: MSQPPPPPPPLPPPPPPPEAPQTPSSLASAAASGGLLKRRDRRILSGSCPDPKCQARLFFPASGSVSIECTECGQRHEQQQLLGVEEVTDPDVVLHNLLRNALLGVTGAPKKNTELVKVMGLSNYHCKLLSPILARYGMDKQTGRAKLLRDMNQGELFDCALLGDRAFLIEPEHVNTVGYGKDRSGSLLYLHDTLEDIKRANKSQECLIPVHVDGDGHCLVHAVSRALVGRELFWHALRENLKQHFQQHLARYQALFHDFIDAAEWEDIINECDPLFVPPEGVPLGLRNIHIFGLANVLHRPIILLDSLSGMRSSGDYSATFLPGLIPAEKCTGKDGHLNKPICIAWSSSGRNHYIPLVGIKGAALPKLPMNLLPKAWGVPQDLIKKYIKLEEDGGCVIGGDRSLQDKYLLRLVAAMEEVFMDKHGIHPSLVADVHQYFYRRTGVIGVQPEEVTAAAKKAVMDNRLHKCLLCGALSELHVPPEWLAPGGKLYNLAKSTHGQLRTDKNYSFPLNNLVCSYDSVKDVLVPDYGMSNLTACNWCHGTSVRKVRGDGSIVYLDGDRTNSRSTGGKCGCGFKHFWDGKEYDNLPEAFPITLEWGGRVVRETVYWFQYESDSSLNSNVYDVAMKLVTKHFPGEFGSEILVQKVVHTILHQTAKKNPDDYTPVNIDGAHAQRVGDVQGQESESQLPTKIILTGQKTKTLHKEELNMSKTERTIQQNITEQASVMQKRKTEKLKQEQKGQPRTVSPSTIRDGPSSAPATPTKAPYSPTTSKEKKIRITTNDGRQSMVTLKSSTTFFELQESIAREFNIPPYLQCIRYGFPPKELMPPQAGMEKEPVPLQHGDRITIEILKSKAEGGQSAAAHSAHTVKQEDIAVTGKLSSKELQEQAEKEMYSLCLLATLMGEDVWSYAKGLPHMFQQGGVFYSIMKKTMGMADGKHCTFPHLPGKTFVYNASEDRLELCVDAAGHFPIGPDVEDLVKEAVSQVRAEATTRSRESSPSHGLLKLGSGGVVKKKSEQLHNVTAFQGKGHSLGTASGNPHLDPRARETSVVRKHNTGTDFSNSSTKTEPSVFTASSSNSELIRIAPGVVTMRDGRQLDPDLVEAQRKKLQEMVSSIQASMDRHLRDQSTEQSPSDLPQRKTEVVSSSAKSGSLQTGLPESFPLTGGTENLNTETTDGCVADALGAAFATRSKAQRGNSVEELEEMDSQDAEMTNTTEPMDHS
UniProt Q99986: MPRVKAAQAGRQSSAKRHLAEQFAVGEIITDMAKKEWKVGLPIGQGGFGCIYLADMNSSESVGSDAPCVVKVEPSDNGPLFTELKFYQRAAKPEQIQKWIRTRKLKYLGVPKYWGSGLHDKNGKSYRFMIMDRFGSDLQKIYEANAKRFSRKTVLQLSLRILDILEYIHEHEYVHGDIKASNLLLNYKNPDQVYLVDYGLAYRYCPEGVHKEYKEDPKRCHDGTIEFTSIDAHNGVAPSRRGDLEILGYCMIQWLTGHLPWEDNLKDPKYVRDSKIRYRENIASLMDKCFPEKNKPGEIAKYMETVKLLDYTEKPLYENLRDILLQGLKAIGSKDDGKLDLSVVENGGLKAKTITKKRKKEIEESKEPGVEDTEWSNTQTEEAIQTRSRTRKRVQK
UniProt Q14119: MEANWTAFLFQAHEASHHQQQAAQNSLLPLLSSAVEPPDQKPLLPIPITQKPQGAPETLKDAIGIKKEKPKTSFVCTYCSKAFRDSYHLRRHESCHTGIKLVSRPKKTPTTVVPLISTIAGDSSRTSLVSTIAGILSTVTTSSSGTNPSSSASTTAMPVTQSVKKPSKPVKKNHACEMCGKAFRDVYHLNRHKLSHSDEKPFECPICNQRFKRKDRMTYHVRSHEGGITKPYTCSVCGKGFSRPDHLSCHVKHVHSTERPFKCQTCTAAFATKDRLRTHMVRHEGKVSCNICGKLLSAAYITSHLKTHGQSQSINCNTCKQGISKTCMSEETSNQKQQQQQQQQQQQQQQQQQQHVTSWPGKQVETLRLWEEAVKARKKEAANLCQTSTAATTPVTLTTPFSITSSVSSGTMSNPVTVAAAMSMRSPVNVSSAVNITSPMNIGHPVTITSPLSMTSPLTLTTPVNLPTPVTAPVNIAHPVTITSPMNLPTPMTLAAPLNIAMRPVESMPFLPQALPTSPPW
UniProt Q9P1Q0: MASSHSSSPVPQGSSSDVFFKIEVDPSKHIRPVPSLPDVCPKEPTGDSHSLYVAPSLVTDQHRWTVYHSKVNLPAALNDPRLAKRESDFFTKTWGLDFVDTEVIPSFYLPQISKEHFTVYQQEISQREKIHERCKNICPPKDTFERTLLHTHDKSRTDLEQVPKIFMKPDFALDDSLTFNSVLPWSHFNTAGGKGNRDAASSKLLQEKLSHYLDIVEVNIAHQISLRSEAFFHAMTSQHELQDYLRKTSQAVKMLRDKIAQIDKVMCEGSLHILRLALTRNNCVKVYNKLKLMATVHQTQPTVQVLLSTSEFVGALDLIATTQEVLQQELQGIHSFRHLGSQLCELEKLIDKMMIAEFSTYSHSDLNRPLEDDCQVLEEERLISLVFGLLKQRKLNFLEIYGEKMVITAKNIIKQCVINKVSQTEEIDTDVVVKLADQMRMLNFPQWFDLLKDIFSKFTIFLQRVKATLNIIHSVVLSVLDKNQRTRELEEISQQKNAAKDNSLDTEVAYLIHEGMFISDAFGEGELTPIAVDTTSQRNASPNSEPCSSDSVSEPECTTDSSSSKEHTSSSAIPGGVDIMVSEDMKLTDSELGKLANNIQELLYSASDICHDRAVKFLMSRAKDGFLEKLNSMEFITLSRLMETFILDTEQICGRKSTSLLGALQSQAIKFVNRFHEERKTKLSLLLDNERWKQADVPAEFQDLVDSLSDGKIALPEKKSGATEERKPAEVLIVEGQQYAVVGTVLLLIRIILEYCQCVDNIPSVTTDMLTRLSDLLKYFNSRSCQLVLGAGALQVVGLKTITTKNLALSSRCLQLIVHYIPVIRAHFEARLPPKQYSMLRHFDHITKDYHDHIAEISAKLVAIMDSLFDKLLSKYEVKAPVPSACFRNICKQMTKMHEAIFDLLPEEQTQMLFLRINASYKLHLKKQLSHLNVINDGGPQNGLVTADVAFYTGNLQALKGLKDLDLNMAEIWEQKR
UniProt P50552: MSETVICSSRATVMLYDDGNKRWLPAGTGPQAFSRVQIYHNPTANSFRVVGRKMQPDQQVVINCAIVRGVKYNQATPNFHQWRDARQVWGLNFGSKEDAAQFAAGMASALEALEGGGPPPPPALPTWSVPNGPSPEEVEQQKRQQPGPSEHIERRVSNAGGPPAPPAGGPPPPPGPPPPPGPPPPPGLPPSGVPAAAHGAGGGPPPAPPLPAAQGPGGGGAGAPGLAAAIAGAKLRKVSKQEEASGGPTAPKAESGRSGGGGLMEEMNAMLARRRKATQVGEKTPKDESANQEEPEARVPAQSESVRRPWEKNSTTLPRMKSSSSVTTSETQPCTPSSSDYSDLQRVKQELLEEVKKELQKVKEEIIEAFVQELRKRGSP
UniProt P55072, whole entry, looked up: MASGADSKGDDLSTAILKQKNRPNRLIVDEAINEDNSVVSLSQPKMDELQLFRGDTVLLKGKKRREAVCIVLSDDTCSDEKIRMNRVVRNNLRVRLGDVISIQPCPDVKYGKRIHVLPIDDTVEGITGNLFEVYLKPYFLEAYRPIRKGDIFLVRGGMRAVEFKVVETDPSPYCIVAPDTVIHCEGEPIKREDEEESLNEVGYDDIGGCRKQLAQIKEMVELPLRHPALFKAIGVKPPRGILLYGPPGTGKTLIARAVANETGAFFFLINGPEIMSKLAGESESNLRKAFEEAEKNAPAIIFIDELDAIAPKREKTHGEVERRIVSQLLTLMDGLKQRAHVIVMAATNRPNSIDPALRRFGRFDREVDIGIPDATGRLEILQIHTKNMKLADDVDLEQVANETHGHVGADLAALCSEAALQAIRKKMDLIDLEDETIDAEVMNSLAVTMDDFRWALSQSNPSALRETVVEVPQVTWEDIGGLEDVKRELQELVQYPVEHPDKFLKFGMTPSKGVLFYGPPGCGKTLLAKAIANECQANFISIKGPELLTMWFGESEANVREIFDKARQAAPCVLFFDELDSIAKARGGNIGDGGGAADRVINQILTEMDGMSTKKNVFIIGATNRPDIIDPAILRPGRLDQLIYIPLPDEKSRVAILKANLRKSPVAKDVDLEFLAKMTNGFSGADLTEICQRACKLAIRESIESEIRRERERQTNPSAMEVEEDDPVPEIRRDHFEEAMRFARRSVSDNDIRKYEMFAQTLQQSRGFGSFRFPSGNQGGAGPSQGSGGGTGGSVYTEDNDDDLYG
UniProt P15498: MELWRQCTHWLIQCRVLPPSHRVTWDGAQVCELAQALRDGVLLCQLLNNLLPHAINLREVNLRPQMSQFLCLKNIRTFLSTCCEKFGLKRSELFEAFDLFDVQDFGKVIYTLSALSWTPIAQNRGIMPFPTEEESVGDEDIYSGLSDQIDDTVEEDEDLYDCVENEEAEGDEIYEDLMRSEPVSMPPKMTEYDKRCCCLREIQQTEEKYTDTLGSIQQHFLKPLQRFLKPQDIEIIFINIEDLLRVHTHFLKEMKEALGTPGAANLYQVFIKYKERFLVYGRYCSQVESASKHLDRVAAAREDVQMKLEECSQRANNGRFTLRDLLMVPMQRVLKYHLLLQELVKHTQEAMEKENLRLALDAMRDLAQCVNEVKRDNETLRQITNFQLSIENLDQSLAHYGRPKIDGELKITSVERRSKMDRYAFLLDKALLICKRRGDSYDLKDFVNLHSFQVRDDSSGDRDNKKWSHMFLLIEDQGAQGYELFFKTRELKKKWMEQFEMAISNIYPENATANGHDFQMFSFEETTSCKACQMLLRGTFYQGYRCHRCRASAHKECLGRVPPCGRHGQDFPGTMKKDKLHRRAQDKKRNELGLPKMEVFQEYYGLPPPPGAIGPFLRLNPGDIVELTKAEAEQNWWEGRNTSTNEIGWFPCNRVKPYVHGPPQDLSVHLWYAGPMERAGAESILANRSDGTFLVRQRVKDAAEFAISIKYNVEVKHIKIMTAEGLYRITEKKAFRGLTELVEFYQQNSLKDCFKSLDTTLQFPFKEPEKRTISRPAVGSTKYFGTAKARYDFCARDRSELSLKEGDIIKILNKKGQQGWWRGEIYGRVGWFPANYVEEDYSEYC
UniProt Q9Y5J1: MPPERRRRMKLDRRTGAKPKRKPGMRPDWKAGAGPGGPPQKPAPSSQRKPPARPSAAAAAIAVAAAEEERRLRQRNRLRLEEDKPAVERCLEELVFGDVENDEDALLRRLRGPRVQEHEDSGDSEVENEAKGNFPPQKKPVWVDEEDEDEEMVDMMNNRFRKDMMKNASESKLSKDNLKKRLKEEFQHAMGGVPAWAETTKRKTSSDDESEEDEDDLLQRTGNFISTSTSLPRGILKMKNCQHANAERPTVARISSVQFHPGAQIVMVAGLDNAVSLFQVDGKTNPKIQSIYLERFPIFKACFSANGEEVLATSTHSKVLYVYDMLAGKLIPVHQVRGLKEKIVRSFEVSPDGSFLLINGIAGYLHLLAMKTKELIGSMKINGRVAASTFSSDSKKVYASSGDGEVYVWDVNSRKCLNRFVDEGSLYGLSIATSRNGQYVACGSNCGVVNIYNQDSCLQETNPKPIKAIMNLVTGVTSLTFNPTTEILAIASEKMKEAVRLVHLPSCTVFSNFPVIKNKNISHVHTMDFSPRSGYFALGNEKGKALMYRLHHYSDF
UniProt Q9UGM6: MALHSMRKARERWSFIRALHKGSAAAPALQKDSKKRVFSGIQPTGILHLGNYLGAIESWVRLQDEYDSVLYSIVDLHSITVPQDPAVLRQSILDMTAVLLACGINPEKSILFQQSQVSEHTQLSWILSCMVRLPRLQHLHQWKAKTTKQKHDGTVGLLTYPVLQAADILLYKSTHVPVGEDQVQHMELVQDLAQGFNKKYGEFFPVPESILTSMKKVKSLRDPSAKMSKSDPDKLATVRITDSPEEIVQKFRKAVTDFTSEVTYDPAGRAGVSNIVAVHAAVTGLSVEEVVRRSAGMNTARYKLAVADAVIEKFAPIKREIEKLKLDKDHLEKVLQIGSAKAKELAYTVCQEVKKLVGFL
UniProt Q9NP79: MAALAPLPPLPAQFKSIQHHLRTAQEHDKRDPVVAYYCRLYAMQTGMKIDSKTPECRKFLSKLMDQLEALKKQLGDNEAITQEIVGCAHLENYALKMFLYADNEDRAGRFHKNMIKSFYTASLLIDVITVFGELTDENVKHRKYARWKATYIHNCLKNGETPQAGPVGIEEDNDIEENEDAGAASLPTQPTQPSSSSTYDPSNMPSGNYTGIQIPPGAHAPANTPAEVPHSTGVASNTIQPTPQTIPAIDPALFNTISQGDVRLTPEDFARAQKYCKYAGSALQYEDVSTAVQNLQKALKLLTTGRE

Target	probe-labelled cysteine peptide fold change (10 µM)	probe-labelled cysteine peptide fold change (50 µM)
UTP20_O75691_242_NMFHSCTGQAVK (UniProt O75691)	-0.122	0.227
USP9Y_O00507_541_ILDYSCSQDR (UniProt O00507)	0.0644	0.343
VARS_P26640_340_GVFMMCIPPPNVTGSLHLGHALTNAIQDSLTR (UniProt P26640)	0.429	0.379
VAMP7_P51809_64_IVYLCITDDDFER (UniProt P51809)	0.243	0.625
VCPIP1_Q96JH7_207+219_SQECLIPVHVDGDGHCLVHAVSR (UniProt Q96JH7)	-1.2	-1.48
VRK1_Q99986_220_CHDGTIEFTSIDAHNGVAPSR (UniProt Q99986)	-0.205	0.00959
VEZF1_Q14119_319_THGQSQSINCNTCK (UniProt Q14119)	-0.0855	-0.673
VPS54_Q9P1Q0_40_HIRPVPSLPDVCPK (UniProt Q9P1Q0)	-0.406	-0.101
WAPL_Q7Z5K2_1190_VIEYLEHC (UniProt Q7Z5K2)	0.045	0.109
VARS_P26640_663_GIEDNPMVVPLCNR (UniProt P26640)	-0.209	-0.093
VPS33A_Q96AX1_163_ECYLEGDQTSLYHAAK (UniProt Q96AX1)	-0.0226	0.253
VASP_P50552_7_SETVICSSR (UniProt P50552)	0.589	0.839
UTP23_Q9BRU9_103_NAVSGSECLLSMVEEGNPHHYFVATQDQNLSVK (UniProt Q9BRU9)	-0.048	-0.189
VCP_P55072_77_EAVCIVLSDDTCSDEK (UniProt P55072)	0.133	-0.0535
VARS_P26640_479_LVNWSCTLNSAISDIEVDKK (UniProt P26640)	0.122	-0.0535
UTP23_Q9BRU9_207_ISGPNPLSCLK (UniProt Q9BRU9)	-0.0524	-0.323
VCPIP1_Q96JH7_469_CLLCGALSELHVPPEWLAPGGK (UniProt Q96JH7)	0.17	-0.568
UTP23_Q9BRU9_35_NNFGVREPYQILLDGTFCQAALR (UniProt Q9BRU9)	-0.0779	-0.373
VAV1_P15498_652_NTSTNEIGWFPCNR (UniProt P15498)	-0.108	-0.274
UTP18_Q9Y5J1_507_LVHLPSCTVFSNFPVIK (UniProt Q9Y5J1)	0.0471	-0.0312
WARS2_Q9UGM6_102_QSILDMTAVLLACGINPEK (UniProt Q9UGM6)	0.195	0.614

Exported as a markdown table: entries from further up.

| Target | probe-labelled cysteine peptide fold change (10 µM) | probe-labelled cysteine peptide fold change (50 µM) |
| --- | --- | --- |
| UTP20_O75691_242_NMFHSCTGQAVK (UniProt O75691) | -0.122 | 0.227 |
| USP9Y_O00507_541_ILDYSCSQDR (UniProt O00507) | 0.0644 | 0.343 |
| VRK1_Q99986_220_CHDGTIEFTSIDAHNGVAPSR (UniProt Q99986) | -0.205 | 0.00959 |
| VEZF1_Q14119_319_THGQSQSINCNTCK (UniProt Q14119) | -0.0855 | -0.673 |
| VPS54_Q9P1Q0_40_HIRPVPSLPDVCPK (UniProt Q9P1Q0) | -0.406 | -0.101 |
| VASP_P50552_7_SETVICSSR (UniProt P50552) | 0.589 | 0.839 |
| UTP23_Q9BRU9_103_NAVSGSECLLSMVEEGNPHHYFVATQDQNLSVK (UniProt Q9BRU9) | -0.048 | -0.189 |
| VCP_P55072_77_EAVCIVLSDDTCSDEK (UniProt P55072) | 0.133 | -0.0535 |
| VCPIP1_Q96JH7_469_CLLCGALSELHVPPEWLAPGGK (UniProt Q96JH7) | 0.17 | -0.568 |
| VAV1_P15498_652_NTSTNEIGWFPCNR (UniProt P15498) | -0.108 | -0.274 |
| UTP18_Q9Y5J1_507_LVHLPSCTVFSNFPVIK (UniProt Q9Y5J1) | 0.0471 | -0.0312 |
| WARS2_Q9UGM6_102_QSILDMTAVLLACGINPEK (UniProt Q9UGM6) | 0.195 | 0.614 |

Additional records:

Target	probe-labelled cysteine peptide fold change (10 µM)	probe-labelled cysteine peptide fold change (50 µM)
VTA1_Q9NP79_87_KQLGDNEAITQEIVGCAHLENYALK (UniProt Q9NP79)	0.125	-0.456
UTP18_Q9Y5J1_302_ACFSANGEEVLATSTHSK (UniProt Q9Y5J1)	0.0849	0.143
VCP_P55072_105_LGDVISIQPCPDVK (UniProt P55072)	-0.0467	0.0133
VCPIP1_Q96JH7_538_DVLVPDYGMSNLTACNWCHGTSVR (UniProt Q96JH7)	0.101	-0.297
VPS35_Q96QK1_156_NYLLQCTR (UniProt Q96QK1)	-0.0574	-0.116
VAPB_O95292_173_VMEECK (UniProt O95292)	-0.0929	0.113
VPS16_Q9H269_408_CFLDRFPPDSFVHMCQDLR (UniProt Q9H269)	-0.0753	0.0447
VAMP7_P51809_21_HAWCGGNFLEVTEQILAK (UniProt P51809)	-0.0461	0.185
VARS_P26640_381_MRGETTLWNPGCDHAGIATQVVVEK (UniProt P26640)	-0.0626	-0.0755
VPS33B_Q9H267_259_CGSVDFGPEVTSSDK (UniProt Q9H267)	0.169	0.293
VPS26B_Q4G0F5_334_TPSQLSDNNCR (UniProt Q4G0F5)	-0.253	0.0136
VPS29_Q9UBQ0_36+41_IQHILCTGNLCTK (UniProt Q9UBQ0)	-0.0434	-0.0728
VPS13B_Q7Z7G8_1993_CIDPGK (UniProt Q7Z7G8)	-0.0685	-0.000933
VPS39_Q96JC1_235_VAVGQDDLTVVLNEEGICTQK (UniProt Q96JC1)	-0.217	-0.31
VPS4B_O75351_240_ENKPSIIFIDEIDSLCGSR (UniProt O75351)	-0.193	0.0604
WAC_Q9BTA9_553_STCSLTPALAAHFSENLIK (UniProt Q9BTA9)	0.0122	-0.619
VAMP7_P51809_56_LTYSHGNYLFHYICQDR (UniProt P51809)	0.26	0.546
UTRN_P46939_2185_ECIQEPSSVSQTR (UniProt P46939)	-0.215	-0.25
VPS13D_Q5THJ4_3722_LTCGLHGLVVQAK (UniProt Q5THJ4)	-0.0396	0.0236
USP9Y_O00507_1773_GDLLEGANAYHCEK (UniProt O00507)	0.00151	-0.211
VAT1L_Q9HCJ6_78_ACGLNFIDLMVR (UniProt Q9HCJ6)	0.206	0.0683
